Laboratory results published in patent US7816310B2, “Increased moisturization efficacy using hydroxyalkylurea and ammonium lactate” (Akzo Nobel N.V., priority 2003, dated 2010).

Test: Hair moisture uptake by Dynamic Vapor Sorption (DVS)
Conditions: 37° C., 50% active solution

With `OCC(O)CO` [Glycerin, glycerin] the “Percent moisture uptake by DVS analysis” value (4 Hour @ 85% RH, blank (water) 13.58%) was 22.10% and the “Percent moisture uptake by DVS analysis” value (20 Hour @ 85% RH, blank (water) 14.53%) was 44.58%.
